Laboratory results reported in PubChem BioAssay AID2685 (National Center for Advancing Translational Sciences (NCATS), 2010).
Screen size: about 320,000 compounds; about 2,100 (0.66%) were called active. The inconclusive results got no clear call from the source; some entries with a clear call stand among them for comparison. Calls come from the whole dose curve; as a rule, active = well fitted inhibition curve with a large enough effect in the signal ratio, with a control signal flat (not every such curve was filed as active); inconclusive = small, poorly fitted or top-dose-only effect, or effect the other way, or a change in a side signal; inactive = flat fitted curve, though single readings scatter; the % refers to the signal ratio. Where the call is inconclusive, the potency comes from a doubtful curve fit.

Test: qHTS Assay for Lipid Storage Modulators in Drosophila S3 Cells
Details: BODIPY lipid droplet fluorescence, 18-24 h, cells fed with added oleic acid; lipid storage change, negative = inhibition: at 46.1 µM (top of the series) unless noted
Procedure, shortened: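 Laser-scanning cytometry quantifies lipid droplet accumulation (500–530 nm total intensity; droplet/cell object ratio) in oleic acid-fed (400 uM added) Drosophila S3 cells treated with a concentration series. 20 uM Triacsin C defined 100% inhibition.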
% is set by controls: 0 for no effect and ±100 for the full control effect; potency is the fitted concentration of half-maximal effect.

Row | Compound | lipid storage change, negative = inhibition | Potency
1 | OC1CCN(C(=S)Nc2ccc(Nc3ccccc3)cc2)CC1 | inconclusive: -45% | 
2 | CC1CCc2[nH]c3ccc(C(=O)Nc4ccc(C(=O)N(C)C)cc4)cc3c2C1 (stereo not given) | inconclusive: 64.4% | 
3 | Cc1ccccc1NC(=S)Nc1ccc2cn[nH]c2c1 | inconclusive: 19.7% | 
4 | CCc1ccc(NC(=O)CCC(=O)Nc2nnc(C(C)C)s2)cc1 |  | inconclusive: 1.16 µM [falling, full curve, poor fit]
5 | COC(=O)c1ccc(C)c(N(CCO)CCO)c1 | inconclusive: 19.5% | 
6 | CC(C(=O)N=Nc1c(O)[nH]c2ccccc12)n1cnc2ccccc2c1=O (stereo not given) |  | inconclusive: 0.0052 µM [rising, full curve, poor fit]
7 | O=C(Nc1nnc(S(=O)(=O)N2CCCC2)s1)c1cccc([N+](=O)[O-])c1 |  | inconclusive: 6.51 µM [activator, single point]
8 | O=C1C(=O)N2C(=C1C(=O)N1CCCCCC1)c1ccccc1CC21CCCC1 | inconclusive: 10.8% | 
9 | O=C(Nc1ccccc1F)Nc1ccccc1N1CCCCC1 | inconclusive: -15% | 
10 | Cc1ccc(-c2nnc(C)c(N3CCOCC3)n2)cc1 |  | inconclusive: 2.91 µM [falling, partial curve]
11 | COc1cccc(-n2c(COc3ccc(C)cc3)nnc2SCC(=O)O)c1 | inconclusive: 41.1% | 
12 | O=[N+]([O-])c1cc(Br)c2nsnc2c1N1CCOCC1 | inconclusive: -28.5% | 
13 | Cc1ccc(CSc2nnc(-c3ccncc3)n2CC2CCCO2)cc1 (stereo not given) | inconclusive: 5.38% | 
14 | Cc1cc(C)cc(Nc2cnn(C34CC5CC(CC(CC(=O)O)(C5)C3)C4)c(=O)c2Cl)c1 |  | active: 18.4 µM
15 | CN1CCN(C(c2cccc(Cl)c2)c2ccccc2Cl)CC1 (stereo not given) | inconclusive: -29.5% | 
16 | Cc1ccc(C)c(C2C(=O)c3ccccc3C2=O)c1 | inactive: -0.949% | 
17 | O=C(Nc1ccc2c(c1)OCO2)C1CC(c2cccc(Br)c2)=NO1 (stereo not given) | inconclusive: 120% | 
18 | CCCS(=O)(=O)N1CCC(C(=O)Oc2ccc(OC)cc2)CC1 | inconclusive: 15.7% | 
19 | CCOc1ccc(N2CC(C(=O)Nc3nnc(Cc4ccc(OC)c(OC)c4)s3)CC2=O)cc1 (stereo not given) | inconclusive: 4.56% | 
20 | Cc1ccc(NC(=O)CNC(=O)Cc2cccc3ccccc23)c(O)c1 | inconclusive | 
21 | COc1ccc(-c2cc3c(=O)n(CC(=O)NC4CCN(Cc5ccccc5)CC4)ncn3n2)cc1 |  | inconclusive: 0.058 µM [falling, full curve, poor fit]
22 | N=c1c(C(=O)NCCc2ccccc2)cc2c(=O)n3ccccc3nc2n1CCCN1CCOCC1 |  | active: 6.51 µM
23 | COc1ccccc1NC(=O)NNC(=O)C(C)Oc1ccc2ccccc2c1 (stereo not given) | inactive: 6.71% | 
24 | COc1ccc(C(CNC(=O)c2cccc(S(=O)(=O)Nc3cccc(C)c3)c2)N2CCOCC2)cc1 (stereo not given) | inconclusive | 
25 | CC1(C)Cc2ccccc2-c2nc3n(c(=O)c21)CCCS3 |  | inconclusive: 20.6 µM [falling, single point]
26 | O=C(NC(=S)N1CCOCC1)c1cc2ccccc2o1 | inconclusive: 12.9% | 
27 | CCOC(=O)CNc1nc(Oc2ccc(=O)n(C)n2)nc(N(CC)CC)n1 | inconclusive: 44.7% | 

Row | Compound | lipid storage change, negative = inhibition | Potency
28 | O=C(Nc1ccc2c(c1)OCO2)c1ccc(N2CCCC2)c([N+](=O)[O-])c1 | inconclusive: -34.7% | 
29 | COc1ccc(CCNC(=O)c2c(O)c3cccc4c3n(c2=O)CC4)cc1 | inconclusive: 43.9% | 
30 | CCOc1ccc(C(=O)NCc2ccncc2)cc1OCC | inconclusive: 18.4% | 
31 | COCCN(CC(=O)Nc1cccc(C)c1C)C(=O)Cn1c(=O)cnc2ccccc21 | inconclusive: 9.8% | 
32 | Cc1noc(C)c1CSCC(=O)Oc1ccc(N(C)S(=O)(=O)c2ccc(Cl)cc2)cc1 | inconclusive: 66.8% | 
33 | Cc1ccc(C(=O)NC(=S)NCC2CCCO2)cc1Br (stereo not given) | inconclusive: -1.44% | 
34 | Cc1ccccc1Cn1ccc(NC(=O)c2nn(C)cc2[N+](=O)[O-])n1 |  | inconclusive: 20.6 µM [activator, single point]
35 | O=c1[nH]c(=O)n(Cc2ccccc2)c2nc(-c3ccc(C(F)(F)F)cc3)n(CCO)c12 |  | inconclusive: 29.1 µM [rising, single point]
36 | O=C(Cc1ccc(Cl)cc1)NNC(=O)c1ccco1 |  | inconclusive: 0.103 µM [falling, full curve, poor fit]
37 | COc1cccc(/C=N/NC(=O)c2c(C)nc3ccc(Cl)cn23)c1O |  | inconclusive: 25.9 µM [activator, single point]
38 | O=C1CSC(c2ccc([N+](=O)[O-])cc2)N1CCN1CCCCC1 (stereo not given) | inconclusive: 5.53% | 
39 | O=C(COc1ccccc1)Nc1ccc([N+](=O)[O-])cc1 |  | inconclusive: 0.0651 µM [activator, full curve, poor fit]
40 | Cc1ccc(S(=O)(=O)c2cc3c(=O)n4cccc(C)c4nc3n(Cc3ccco3)c2=N)cc1C | inconclusive: 31.5% | 
41 | CCCCOc1ccc(-c2nnn(CC(=O)c3c[nH]c4ccccc34)n2)cc1 | inconclusive: -4.02% | 
42 | CC1CCC(NC(=O)CCS(=O)(=O)c2ccc3c(c2)CCN3C(=O)C2CC2)CC1 (stereo not given) | inconclusive: -24.2% | 
43 | CC(C)(NO)/C(=N/O)c1cccs1 | inconclusive: 54.1% | 
44 | Cc1cnc(C(=O)OCC(=O)c2ccc(Cl)cc2)cn1 | inconclusive: 19.3% | 
45 | COc1ccc(C(=O)NCCSc2ccccc2C)cc1 | inconclusive: -30.2% | 
46 | CC1CCCC(C)N1C(=O)c1ccc(S(=O)(=O)NCc2ccco2)cc1 (stereo not given) |  | inconclusive: 25.9 µM [activator, partial curve]
47 | O=C(COC(=O)c1cccc(S(=O)(=O)N2CCCCC2)c1)NCc1ccccc1 | inconclusive: 3.99% | 
48 | O=[N+]([O-])c1ccc(CNc2ccc(Cl)cc2)s1 |  | inconclusive: 29.1 µM [activator, single point]
49 | CC(C)Cn1c(=O)n(C)c(=O)c2[nH]cnc21 | inconclusive: 8.62% | 
50 | COCCOC(=O)c1c(C)n(C)c2ccc(OC(=O)N3CCOCC3)cc12 | inconclusive: 8.32% | 
51 | CC(C)c1ccc(NC(=O)C(c2ccccc2)N2CCC3(CC2)OCCO3)cc1 (stereo not given) | inconclusive: -25.5% | 
52 | O=C(Cn1nc(-c2ccco2)ccc1=O)Nc1cc(Cl)ccc1Cl | inconclusive: -25.4% | 
53 | COc1ccccc1OCCNC(=O)CCC(=O)N1CCOCC1 | inconclusive: 1.9% | 
54 | CC(Oc1ccc(Cl)cc1)C(=O)Nc1ccc(S(=O)(=O)N2CCOCC2)cc1 (stereo not given) |  | inconclusive: 8.2 µM [falling, partial curve]

Four entries from above, with tabs.
Row	Compound	lipid storage change, negative = inhibition	Potency
31	COCCN(CC(=O)Nc1cccc(C)c1C)C(=O)Cn1c(=O)cnc2ccccc21	inconclusive: 9.8%	
42	CC1CCC(NC(=O)CCS(=O)(=O)c2ccc3c(c2)CCN3C(=O)C2CC2)CC1 (stereo not given)	inconclusive: -24.2%	
45	COc1ccc(C(=O)NCCSc2ccccc2C)cc1	inconclusive: -30.2%	
47	O=C(COC(=O)c1cccc(S(=O)(=O)N2CCCCC2)c1)NCc1ccccc1	inconclusive: 3.99%	

Next part

Row | Compound | lipid storage change, negative = inhibition | Potency
55 | CCOC(=O)C1=C(C)OC(N)=C(C#N)C1c1cc(SCC)oc1C (stereo not given) | inconclusive: -9.06% | 
56 | CCOc1ccc2sc(NS(=O)(=O)c3ccc(OC)c(OC)c3)nc2c1 | inconclusive: 10.4% | 
57 | O=C(Cc1ccc(Cl)cc1Cl)OCC(=O)N1CCCCC1 | inconclusive: 196% | 
58 | Cc1ccc(/C(O)=C2/C(=O)C(=O)N(Cc3ccco3)C2c2cccs2)cc1 (stereo not given) | inconclusive: 33% | 
59 | CCOc1cc(/C=N/NC(=O)C(=O)Nc2cc(Cl)ccc2C)ccc1O | inconclusive: 41.6% | 
60 | COc1ccc(NC(=O)n2ncc3cc(Cl)ccc32)cc1OC |  | inconclusive: 29.1 µM [falling, single point]
61 | COc1cccc(NC(=O)COC(=O)/C=C/c2ccc(Cl)cc2Cl)c1 | inconclusive: 57.7% | 
62 | CCC(=O)NC(=S)Nc1ccc(NC(=O)c2cc3ccccc3o2)c(OC)c1 |  | inconclusive: 10.3 µM [cytotoxic, partial curve, poor fit]
63 | COc1ccccc1OCC(=O)Nc1ccc(-c2nnc(-c3ccco3)o2)cc1 | inconclusive: -27.8% | 
64 | COc1ccc(-c2nc3ccccc3c(=O)n2CCOc2ccccc2C)cc1 |  | inconclusive: 2.06 µM [activator, full curve]
65 | CCOc1nc(Nc2ccc(F)cc2)nc(N2CCN(c3ccc(OC)cc3)CC2)n1 |  | inconclusive: 2.31 µM [activator, partial curve]
66 | Nc1c2c(nc3cccc(Cl)c13)N(c1ccccc1)CC2 | inconclusive: -9.33% | 
67 | Nc1c(-c2ccc3c(c2)OCCO3)oc2ccccc2c1=O |  | active: 1.84 µM
68 | CN(C)C(=O)CCN1CCOCC1 | inconclusive: -42.2% [at 0.0737 µM] | 
69 | O=C(CCNS(=O)(=O)c1ccccc1C(F)(F)F)Nc1ccncc1 |  | inconclusive: 16.4 µM [activator, partial curve, poor fit]
70 | COc1ccc(Cl)cc1NC(=O)CCN1CCN(C)CC1 | inconclusive: 4.02% | 
71 | Cc1ccc2c(c1)N(S(=O)(=O)c1ccc(CN3C(=O)c4cccnc4C3=O)s1)CCO2 | inconclusive: 11% | 
72 | COc1ccc(OCC(=O)NCC(c2cccs2)N2CCOCC2)cc1 (stereo not given) | inconclusive | 
73 | CCC(C)(C)n1nnnc1C(c1ccc(C)cc1)N1CCN(Cc2cccnc2)CC1 (stereo not given) | inconclusive: 18.1% | 
74 | CSc1ncccc1C(=O)N1CCCC(N2CCN(c3ccccc3F)CC2)C1 (stereo not given) | inconclusive: -35.4% | 
75 | Cc1ccccc1OCC(=O)Nc1ccccc1N1CCCCC1 |  | inconclusive: 29.1 µM [falling, single point]
76 | CCOP(=O)(OCC)c1nc(-c2ccc(Cl)cc2Cl)oc1N1CCCCC1 | inconclusive: -0.848% | 
77 | Cc1ccc2cc(C)c(SCC(=O)NCc3ccco3)nc2c1 | inconclusive: -6.06% | 
78 | CC(C)NCC(=O)C12CC3CC(CC(C3)C1)C2 | inconclusive: -8.45% | 
79 | CCC(=O)OCCCCCCOc1ccc(C(=O)O)cc1 | inconclusive: -21.9% | 
80 | COc1ccc(N=C2SC(CC(=O)Nc3cccc(Cl)c3)C(=O)N2Cc2ccco2)cc1 (stereo not given) |  | inconclusive: 29.1 µM [falling, single point]
